Measurements as given in US20260250318A1, “COMPOSITIONS AND METHODS FOR CROSSING THE BLOOD BRAIN BARRIER” (VOYAGER THERAPEUTICS, INC., priority 2022, published 2026).
Some of these results come from one statement about several compounds together.

Test system: N-linked galactose on HeLa cells
Assay: Transduction of HeLa cells after neuraminidase treatment (Luc2 activity)
Format: cell-based, human
Conditions: increasing Neuraminidase
Procedure: Primary glycan receptors have been identified for various AAV serotypes, including AAV9 which binds N-linked galactose. In order to investigate the ability of TTM-001 and TTM-002 AAV9 variants to retain this natural glycan binding, HeLa cells were treated with increasing concentrations of Neuraminidase ([…]), which cleaves N-sialic acid and exposes N-galactose. The treated cells were then transduced with AAV particles comprising the TTM-001 capsid variant (AAV_TTM-001), the TTM-002 capsid variant (AAV_TTM-002), or an AAV9 control (AAV_AAV9cntl), transduction was measured by quantification of Luc2 activity (RLU), and data was normalized relative to the no neuraminidase control.

B1: TTM-001: AAV9 capsid variant comprising SPHSKA (SEQ ID NO: 941) in loop IV (protein)
chain 1: MAADGYLPDWLEDNLSEGIREWWALKPGAPQPKANQQHQDNARGLVLPGYKYLGPGNGLDKGEPVNAADAAALEHDKAYDQQLKAGDNPYLKYNHADAEFQERLKEDTSFGGNLGRAVFQAKKRLLEPLGLVEEAAKTAPGKKRPVEQSPQEPDSSAGIGKSGAQPAKKRLNFGQTGDTESVPDPQPIGEPPAAPSGVGSLTMASGGGAPVADNNEGADGVGSSSGNWHCDSQWLGDRVITTSTRTWALPTYNNHLYKQISNSTSGGSSNDNAYFGYSTPWGYFDFNRFHCHFSPRDWQRLINNNWGFRPKRLNFKLFNIQVKEVTDNNGVKTIANNLTSTVQVFTDSDYQLPYVLGSAHEGCLPPFPADVFMIPQYGYLTLNDGSQAVGRSSFYCLEYFPSQMLRTGNNFQFSYEFENVPFHSSYAHSQSLDRLMNPLIDQYLYYLSKTINGSGSPHSKAQNQQTLKFSVAGPSNMAVQGRNYIPGPSYRQQRVSTTVTQNNNSEFAWPGASSWALNGRNSLMNPGPAMASHKEGEDRFFPLSGSLIFGKQGTGRDNVDADKVMITNEEEIKTTNPVATESYGQVATNHQSAQAQAQTGWVQNQGILPGMVWQDRDVYLQGPIWAKIPHTDGNFHPSPLMGGFGMKHPPPQILIKNTPVPADPPTAFNKDKLNSFITQYSTGQVSVEIEWELQKENSKRWNPEIQYTSNYYKSNNVEFAVNTEGVYSEPRPIGTRYLTRNL
chain 2: GSGSPHSKAQNQQT
Question: With B1 as the molecule, how does the “fold increase in transduction (Luc2 activity) relative to the no neuraminidase control” value read?
Answer: Its value is 9- to 14 fold.

B2: TTM-002: AAV9 capsid variant comprising HDSPHK (SEQ ID NO: 2) in loop IV (protein)
chain 1: MAADGYLPDWLEDNLSEGIREWWALKPGAPQPKANQQHQDNARGLVLPGYKYLGPGNGLDKGEPVNAADAAALEHDKAYDQQLKAGDNPYLKYNHADAEFQERLKEDTSFGGNLGRAVFQAKKRLLEPLGLVEEAAKTAPGKKRPVEQSPQEPDSSAGIGKSGAQPAKKRLNFGQTGDTESVPDPQPIGEPPAAPSGVGSLTMASGGGAPVADNNEGADGVGSSSGNWHCDSQWLGDRVITTSTRTWALPTYNNHLYKQISNSTSGGSSNDNAYFGYSTPWGYFDFNRFHCHFSPRDWQRLINNNWGFRPKRLNFKLFNIQVKEVTDNNGVKTIANNLTSTVQVFTDSDYQLPYVLGSAHEGCLPPFPADVFMIPQYGYLTLNDGSQAVGRSSFYCLEYFPSQMLRTGNNFQFSYEFENVPFHSSYAHSQSLDRLMNPLIDQYLYYLSKTINGHDSPHKSGQNQQTLKFSVAGPSNMAVQGRNYIPGPSYRQQRVSTTVTQNNNSEFAWPGASSWALNGRNSLMNPGPAMASHKEGEDRFFPLSGSLIFGKQGTGRDNVDADKVMITNEEEIKTTNPVATESYGQVATNHQSAQAQAQTGWVQNQGILPGMVWQDRDVYLQGPIWAKIPHTDGNFHPSPLMGGFGMKHPPPQILIKNTPVPADPPTAFNKDKLNSFITQYSTGQVSVEIEWELQKENSKRWNPEIQYTSNYYKSNNVEFAVNTEGVYSEPRPIGTRYLTRNL
chain 2: GHDSPHKSGQNQQT
Question: How did the “fold increase in transduction (Luc2 activity) relative to the no neuraminidase control” value turn out when B2 was run?
Answer: The value was 9- to 14 fold.
